PubChem BioAssay AID652272 – Drosophila RNAi Screening Center – 2013
Purpose: 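Genes whose knock-down decreases or increases Hedgehog reporter output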 (primary screen). Cells: Drosophila clone 8 (Cl8) cells. Reagent: long dsRNA against Drosophila genes. Detection: 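Plate reader light from a firefly reporter under a ptc promoter fragment that responds to Hedgehog, with Renilla light as transfection reference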. Direction: firefly Hh reporter signal: higher = more ptc reporter light; Renilla reference signal: higher = more Renilla control light. Hit rule: 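Called a hit if the two-replicate mean z-score lies below -2 or above +3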. Calls: active = hit: reporter lowered or raised; inactive = not a hit.
The screen tested about 21,000 reagents; this is an unselected part of those that have a named target and a result. Over the whole deposit, 503 (2.4%) are marked active. 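Raw plate light values, not normalised; calls rest on replicate z-scores that were not deposited; hits include reporter decreases as well as increases.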 A plus sign joins genes that one reagent is predicted to hit. The record does not give: the amount of reagent, the time to read-out.

Target gene | amplicon | firefly Hh reporter signal, replicate 1 | firefly Hh reporter signal, replicate 2 | firefly Hh reporter signal, replicate 3 | Renilla reference signal, replicate 1 | Renilla reference signal, replicate 2 | activity call
eIF2Balpha (GeneID 43549) | DRSC16332 | 1.21e5 | 64929 | – | 3092 | 2085 | inactive
CG9389 (GeneID 40347) | DRSC11857 | 60435 | 61028 | – | 2512 | 2740 | inactive
Nep3 (GeneID 33005) | DRSC20685 | 61700 | 1.97e5 | – | 1901 | 8592 | inactive
Csk (GeneID 41398) | DRSC12861 | 45059 | 1.40e5 | – | 9863 | 2960 | inactive
Csk (GeneID 41398) | DRSC15223 | 75637 | 58941 | – | 3879 | 2848 | inactive
Cad88C (GeneID 41774) | DRSC15486 | 71914 | 72425 | – | 2593 | 1901 | inactive
Plekhm1 (GeneID 37520) | DRSC04527 | 78656 | 59604 | – | 2004 | 5241 | inactive
Atg5 (GeneID 31666) | DRSC18112 | 81259 | 98425 | – | 1826 | 1924 | inactive
CG31465 (GeneID 42577) | DRSC16090 | 1.56e5 | 81907 | – | 6082 | 3544 | inactive
CG12795 (GeneID 33561) | DRSC00354 | 1.34e5 | 1.02e5 | – | 2774 | 5979 | inactive
CG14535 (GeneID 34073) | DRSC02393 | 84544 | 50006 | – | 2325 | 4988 | inactive
fng (GeneID 40314) | DRSC11455 | 6.93e5 | 2.10e5 | 98072 | 4439 | 4480 | inactive
fng (GeneID 40314) | DRSC11887 | 62632 | 54298 | – | 2282 | 2352 | inactive
CG30350 (GeneID 246556) | DRSC07690 | 1.05e5 | 67706 | – | 2855 | 5491 | inactive
Aduk (GeneID 41112) | DRSC16451 | 94308 | 1.01e5 | – | 3021 | 2474 | inactive
CG14811 (GeneID 31132) | DRSC17962 | 98864 | 2.43e5 | – | 3024 | 10516 | inactive
RpS20 (GeneID 42464) | DRSC16836 | 2.52e5 | 33035 | – | 23661 | 7468 | active
croc (GeneID 40374) | DRSC11884 | 1.41e5 | 1.38e5 | – | 4632 | 3658 | inactive
Ip6k (GeneID 37465) | DRSC04054 | 56640 | 33523 | – | 2918 | 1926 | inactive
ArfGAP1 (GeneID 39417) | DRSC11173 | 56810 | 35335 | 27587 | 2231 | 1929 | inactive
Rtnl1 (GeneID 33721) | DRSC00851 | 5.97e5 | 2.55e5 | – | 28036 | 10150 | inactive
Rtnl1 (GeneID 33721) | DRSC02684 | 1.71e5 | 1.28e5 | – | 6727 | 5514 | inactive
Rtnl1 (GeneID 33721) | DRSC03122 | 71570 | 53457 | – | 3953 | 2139 | inactive
Snx1 (GeneID 33560) | DRSC00531 | 95169 | 81824 | – | 2049 | 6458 | inactive
Lsm11 (GeneID 36013) | DRSC06238 | 96058 | 49563 | – | 1792 | 2317 | inactive
CG15073 (GeneID 37155) | DRSC06506 | 1.23e5 | 72731 | – | 3059 | 4845 | inactive
ND-B14.7 (GeneID 37385) | DRSC04544 | 1.30e5 | 50216 | – | 2616 | 1994 | inactive
aln (GeneID 2768997) | DRSC08240 | 75530 | 48357 | – | 2587 | 3580 | inactive
CG13033 (GeneID 39839) | DRSC09913 | 1.09e5 | – | – | 197 | 3541 | inactive
gsb-n (GeneID 38004) | DRSC04021 | 1.96e5 | 2.68e5 | – | 4213 | 11831 | inactive
gsb-n (GeneID 38004) | DRSC04693 | 76883 | 78763 | – | 1762 | 5926 | inactive
CG14000 + bchs | DRSC02333 | 89195 | 39830 | – | 2253 | 4069 | inactive
CG4462 (GeneID 42376) | DRSC15583 | 1.04e5 | 63962 | – | 4279 | 2779 | inactive
Pp2C1 (GeneID 31404) | DRSC18699 | 80770 | 59586 | – | 1732 | 1392 | inactive
Lipt1 + CG42837 | DRSC07183 | 1.11e5 | 76281 | – | 4777 | 3499 | inactive
CG4520 (GeneID 41902) | DRSC15590 | 93069 | 87704 | – | 3335 | 2546 | inactive
Vajk4 (GeneID 36950) | DRSC06589 | 1.07e5 | 85538 | – | 5050 | 3287 | inactive
Vajk4 (GeneID 36950) | DRSC07003 | 88909 | 37194 | – | 2202 | 3805 | inactive
CG11638 (GeneID 31050) | DRSC18167 | 78155 | 1.94e5 | – | 1712 | 7893 | inactive
CG11638 (GeneID 31050) | DRSC18640 | 69033 | 1.97e5 | – | 1818 | 7564 | inactive
red (GeneID 41738) | DRSC14477 | 68308 | 32508 | – | 2646 | 1418 | inactive
CG11475 (GeneID 37513) | DRSC04113 | 63088 | 73594 | – | 2458 | 2723 | inactive
CG8301 (GeneID 41160) | DRSC16405 | 78410 | 80739 | – | 2689 | 1948 | inactive
Cyp312a1 (GeneID 40005) | DRSC11128 | 74763 | – | – | 1402 | 3609 | inactive
gol (GeneID 38006) | DRSC04689 | 79529 | 72752 | – | 3307 | 2800 | inactive
CG2926 (GeneID 40676) | DRSC12321 | 1.14e5 | 88051 | – | 3744 | 2956 | inactive
CG3021 (GeneID 53546) | DRSC18165 | 55420 | 1.33e5 | – | 1517 | 5430 | inactive
CG3021 (GeneID 53546) | DRSC18652 | 1.11e5 | 4.13e5 | – | 4306 | 16184 | inactive
Pss (GeneID 40281) | DRSC11757 | 1.26e5 | 78488 | – | 4584 | 2717 | inactive
CG13404 (GeneID 32382) | DRSC19536 | 57940 | 1.53e5 | – | 1603 | 6540 | inactive
CG6527 (GeneID 39197) | DRSC10659 | 8135 | 76386 | 69248 | 6488 | 5588 | inactive
Las (GeneID 40259) | DRSC11772 | 93876 | 87707 | – | 3683 | 3290 | inactive
CG14982 (GeneID 38464) | DRSC08440 | 60150 | 26099 | – | 1648 | 1896 | inactive
ms(3)76Cc (GeneID 40142) | DRSC11071 | 1.60e5 | 1.57e5 | – | 5543 | 4576 | inactive
fipi (GeneID 33676) | DRSC00465 | 79076 | 45174 | – | 1735 | 4220 | inactive
CG7168 (GeneID 42184) | DRSC16208 | 1.24e5 | 98208 | – | 4778 | 4055 | inactive
CG6839 (GeneID 40067) | DRSC10723 | 52324 | 63659 | – | 2083 | 2552 | inactive

As entered above:
Entry for Nep3 (GeneID 33005) [DRSC20685] under “activity call”: inactive
For “activity call”, CG11638 (GeneID 31050) [DRSC18167] shows inactive
Under “firefly Hh reporter signal, replicate 2”, eIF2Balpha (GeneID 43549) [DRSC16332] is entered as 64929
CG13033 (GeneID 39839) [DRSC09913], Renilla reference signal, replicate 2 → 3541
Value of CG14982 (GeneID 38464) [DRSC08440] under “Renilla reference signal, replicate 2”: 1896
For “Renilla reference signal, replicate 1”, CG30350 (GeneID 246556) [DRSC07690] shows 2855
